# Assay results

Data taken from PubChem BioAssay AID1159506, deposited by NCATS (2015).

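Genome-wide siRNA knockdown in TC32 Ewing sarcoma cells, comparing luciferase light from an NR0B1-promoter reporter with a CMV-promoter reporter 48 hours after transfection.
Each siRNA was applied at 20 nM.
A z-score of the log NR0B1-over-CMV signal, less the median of siRNAs with the same seed; more negative means a stronger specific loss of the NR0B1 reporter.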

The strongest results of the screen are mostly left out here.
Sequences are the guide (antisense) strand, without overhang.

For UAACGGAAUGUCCUCACCC against MFSD7 the result was seed-corrected z-score 0.7702.
For UCGGUUUUCAGCUCGAUGC against NIPBL the result was seed-corrected z-score 1.702.
For AUUCAAUCAACUCUCUUUC against LOC145783 the result was seed-corrected z-score -0.2327.
For AUUGUUUCCUGUAUUUGCU against IL21 the result was seed-corrected z-score -0.513.
For AAGUGUUCCAACAUGAUGC against CDC20B the result was seed-corrected z-score 0.7146.
For UUUGCUGUAACUAUUCUCA against NRCAM the result was seed-corrected z-score 0.0586.
For UAGCGGAGCAAAUAGACCC against POMP the result was seed-corrected z-score 0.1476.
For UCUGAGUACUUUGAUCGGC against RNF133 the result was seed-corrected z-score 0.8933.
For UUUUGUUUUAGUAAGUUGG against C3orf49 the result was seed-corrected z-score 0.6439.
For AUUCCAAACAGUUUUCCUC against SFR1P2 the result was seed-corrected z-score 1.26.
For UAUCUGACUUAAGUAUUCC against PLSCR2 the result was seed-corrected z-score -0.001252.
For UUUAGUUCCACUUGCGUCA against WIPI2 the result was seed-corrected z-score 0.436.
For UGACAUAAUGGUCUGACUG against RPL32P16 the result was seed-corrected z-score 0.3925.
For UGUUCGAUAACUCCUGAAC against IFIH1 the result was seed-corrected z-score 0.2713.
For UUUCCACACGUCUGGGUCC against IGFL1 the result was seed-corrected z-score 0.1048.
For UAACCAGUUACCUUUAUAA against LOC650024 the result was seed-corrected z-score -0.5554.
For UCAAAGGUCAGGAUCUGCC against PRMT7 the result was seed-corrected z-score -0.3229.
For UCACGUAUCUGAAUACAUC against ARHGAP5 the result was seed-corrected z-score 0.08581.
For UUUAUGAAAAUCUGGUUGC against ALDH2 the result was seed-corrected z-score -0.2828.
For AAACCUAAAAGGGCAAAGG against OR5D14 the result was seed-corrected z-score 0.7609.
For UUUUUCUCCAUUGCAAUGC against MIR22HG the result was seed-corrected z-score -0.5576.
For UAAUAGCCUGGAACCGUGG against CASP7 the result was seed-corrected z-score 0.6216.
For UGCAUACAAAGGUUGGGUC against ZHX3 the result was seed-corrected z-score -1.
For AUAUCUAGAAAAAUCUGUC against METTL15 the result was seed-corrected z-score 0.6997.
For UGUUUGAGCACUGUGAUCU against SYMPK the result was seed-corrected z-score -0.7857.
For UUUCUCCUCUCGAUGUUCU against NKD1 the result was seed-corrected z-score 0.5471.
For UUUACCUCAUUGUAAAUGC against SNUPN the result was seed-corrected z-score -0.0445.
For UUGUAGACCAUGUCACAGC against BSN the result was seed-corrected z-score -1.064.
For UCUGUUAUCUGGACCCACC against AMIGO2 the result was seed-corrected z-score 0.5159.
For UAUGUCCUAUCUUAUGUCU against ZNF98 the result was seed-corrected z-score -0.2007.
For UUUGGUUGAACAGAUCCUG against VWA2 the result was seed-corrected z-score -0.03378.
For UAAAGCACCAGGGCUUUUC against HABP2 the result was seed-corrected z-score -0.1616.
For UUAGGGUACACCUUCACUG against POMC the result was seed-corrected z-score 0.08701.
For UCAGGGUCUAUGAAGGUCG against GSG1L the result was seed-corrected z-score -0.7877.
For AAAGCUGUAACCCUGACCU against MPP2 the result was seed-corrected z-score 0.3468.
For UCAUUGGUCCUUGGAAUGG against SLC2A10 the result was seed-corrected z-score 0.1938.

Some entries from above, unchanged:

{"strand": "UAAUAGCCUGGAACCGUGG", "gene": "CASP7", "seed-corrected z-score": "0.6216"}
{"strand": "UGACAUAAUGGUCUGACUG", "gene": "RPL32P16", "seed-corrected z-score": "0.3925"}
{"strand": "UUUACCUCAUUGUAAAUGC", "gene": "SNUPN", "seed-corrected z-score": "-0.0445"}